± gives the standard deviation. Only a part is listed here, and it is no random draw. Many of these values have a large error.
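Also: 1 nM active piRISC with 0.1 nM target library at 33 °C single turnover.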

The test system of this assay is MILI (PIWIL2) piRISC loaded with piRNA #1 (26 nt). Nature of the assay: pre-steady-state target cleavage rate (min^-1); MIWI and MILI are mouse PIWI proteins and EfPiwi is from a freshwater sponge; tags in brackets are library labels; higher = faster piRNA-guided slicing of the target. To be noted: guide: piRNA #1 5'p-UGAGGUAGUAGGUUGUAUAGUAUCCA; auxiliary factor: 500 nM mouse GTSF1. In short, it runs like this: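 A transcribed, DNA-blocked target RNA library […] was incubated at 33 °C for 0–8 or 0–960 min with 1 nM active affinity-purified piRISC carrying one synthetic guide, in HEPES–potassium acetate buffer with or without 500 nM GTSF1 partner protein. Uncleaved targets were then sequenced and normalised to depth and to weakly complementary targets. Data from three trials were pooled, with k3 capped at 0.0001 min^-1, and a burst-and-steady-state fit yielded the pre-steady-state cleavage rate.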
Consider GGAGAGGGAUACUAUACAACCUACUACCUCA, for which the “pre-steady-state target cleavage rate” value came to 0.237 ± 0.015.

For the sequence GGAGACCUAUGAUAUGUUGCUAGUACCUGA, the “pre-steady-state target cleavage rate” value was determined as 0.00012 ± 0.032.

As for GGAGACCUAACUAUACAAACUACUACCUCA, the “pre-steady-state target cleavage rate” value stood at 0.248 ± 0.025.

For the sequence GGAGACCUAUGAAAUGAACCUACUACCUCA, the “pre-steady-state target cleavage rate” value was 0.000314 ± 0.0091.

On to “GGAGACCUAUGUAUACAACCUACUACCUCA [g2:g19:cont:t1A]”, for which the “pre-steady-state target cleavage rate” value came out at 0.0765 ± 0.012.

As to GGAGACCAUACUAUACUACCUACUACCACA, the “pre-steady-state target cleavage rate” value was 0.217 ± 0.021.

Take GGAGACCUAUGAUAACAACCUUCUAGCUCA: the “pre-steady-state target cleavage rate” value was 0.0011 ± 0.0064.

As to GGAGUGGAUUCUAUACAACCUUCUACCUCA, the “pre-steady-state target cleavage rate” value is 0.00777 ± 0.0028.

With “GGAGACCUAUGAAUACAACCUACUAGGAGA [g6:g18:cont:t1A]”, the “pre-steady-state target cleavage rate” value worked out at 0.000307 ± 0.022.

As for GGAGACGAUACUAUACAACCUACUACACUCA, the “pre-steady-state target cleavage rate” value turned out to be 0.202 ± 0.03.

For the sequence GGAGUGGAUACUAUACAACCUACUGACCUCA, the “pre-steady-state target cleavage rate” value turned out to be 0.0789 ± 0.011.

For the sequence GGAGACCUAACUAUACAACCUACUUCCUGA, the “pre-steady-state target cleavage rate” value was found to be 0.0081 ± 0.0069.

As to GGAGACGAUACUAUACAACCUACUACCCA, the “pre-steady-state target cleavage rate” value was found to be 0.107 ± 0.024.

GGAGUGGAUACUAUACAACCUUCUUCCUCA: the “pre-steady-state target cleavage rate” value worked out at 0.000291 ± 0.0095.

For the sequence GGAGACCUAACUAUAGCAACCUACUACCUCA, the “pre-steady-state target cleavage rate” value is 0.0973 ± 0.023.

For the sequence GGAGACCUAUGAUAUGAACCUACUGCCUCA, the “pre-steady-state target cleavage rate” value is 0.00012 ± 0.022.

Regarding GGAGACCUUACUAUACAACCAAGUACCUCA, the “pre-steady-state target cleavage rate” value came to 0.0031 ± 0.0035.

On to GGAGACGAUUCUAUACAUCCUACUACCUCA, for which the “pre-steady-state target cleavage rate” value came to 0.267 ± 0.018.

Regarding GGAGACCUAUGAUAUGAAGCUACUACCACA, the “pre-steady-state target cleavage rate” value stood at 0.00019 ± 0.013.

Consider GGAGACCUAUCUAAACAACCUACUUCCUCA, for which the “pre-steady-state target cleavage rate” value amounted to 0.0303 ± 0.0063.

GGAGACCUAUCUAUAGAACCAACUACCUCA: the “pre-steady-state target cleavage rate” value worked out at 0.000752 ± 0.0041.

GGAGUGGAUACUAUACAACCAUGUACCUCA: the “pre-steady-state target cleavage rate” value worked out at 0.00209 ± 0.0031.

With GGAGACCUUACUAUACCACCUACUACCUCA, the “pre-steady-state target cleavage rate” value is 0.109 ± 0.014.
